In the supplement of paper PMC10849652:
Some of the results follow.

Amino acid sequences for entries named in this document (tags omitted). A change or cut given only in a name is not applied to a line headed by its entry.
UniProt Q5VZM2, whole entry, looked up: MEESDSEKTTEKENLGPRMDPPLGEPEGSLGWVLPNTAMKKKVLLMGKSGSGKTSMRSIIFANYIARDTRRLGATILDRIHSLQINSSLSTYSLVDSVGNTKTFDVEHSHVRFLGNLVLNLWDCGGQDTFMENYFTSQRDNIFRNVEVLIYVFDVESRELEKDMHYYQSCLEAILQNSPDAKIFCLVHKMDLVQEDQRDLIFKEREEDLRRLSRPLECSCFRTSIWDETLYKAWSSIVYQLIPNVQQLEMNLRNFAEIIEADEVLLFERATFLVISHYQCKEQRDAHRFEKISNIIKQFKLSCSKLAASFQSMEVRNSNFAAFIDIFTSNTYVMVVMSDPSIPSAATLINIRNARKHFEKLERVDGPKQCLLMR
UniProt P10301: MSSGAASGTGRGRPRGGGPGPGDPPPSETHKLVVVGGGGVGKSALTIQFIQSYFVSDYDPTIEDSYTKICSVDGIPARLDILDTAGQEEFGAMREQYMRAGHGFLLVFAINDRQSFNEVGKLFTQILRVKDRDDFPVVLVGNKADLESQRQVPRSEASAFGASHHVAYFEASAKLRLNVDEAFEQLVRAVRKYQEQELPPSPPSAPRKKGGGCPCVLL
UniProt P51812, whole entry, looked up: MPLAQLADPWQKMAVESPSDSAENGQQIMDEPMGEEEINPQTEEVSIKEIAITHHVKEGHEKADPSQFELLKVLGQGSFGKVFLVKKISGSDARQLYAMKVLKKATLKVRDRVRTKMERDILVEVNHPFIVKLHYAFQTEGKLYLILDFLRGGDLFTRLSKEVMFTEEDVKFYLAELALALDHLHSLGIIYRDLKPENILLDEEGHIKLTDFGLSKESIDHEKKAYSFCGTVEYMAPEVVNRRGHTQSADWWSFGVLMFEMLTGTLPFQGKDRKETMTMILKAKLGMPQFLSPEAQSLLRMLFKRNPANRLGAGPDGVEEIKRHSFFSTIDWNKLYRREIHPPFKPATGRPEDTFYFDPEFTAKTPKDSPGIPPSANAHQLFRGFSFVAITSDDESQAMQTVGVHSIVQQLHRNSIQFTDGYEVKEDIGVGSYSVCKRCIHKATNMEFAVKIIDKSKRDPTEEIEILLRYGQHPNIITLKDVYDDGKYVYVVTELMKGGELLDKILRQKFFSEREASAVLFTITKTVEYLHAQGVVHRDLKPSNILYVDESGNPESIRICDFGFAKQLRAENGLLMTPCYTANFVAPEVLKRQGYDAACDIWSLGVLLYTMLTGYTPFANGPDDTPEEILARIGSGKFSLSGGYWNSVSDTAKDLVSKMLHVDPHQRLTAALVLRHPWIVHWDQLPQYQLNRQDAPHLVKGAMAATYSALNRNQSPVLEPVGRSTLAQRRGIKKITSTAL
UniProt Q9UBF6, whole entry, looked up: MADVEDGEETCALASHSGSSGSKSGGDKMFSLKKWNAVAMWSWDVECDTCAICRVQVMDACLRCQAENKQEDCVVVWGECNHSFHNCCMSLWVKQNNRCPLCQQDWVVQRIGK
UniProt P35244: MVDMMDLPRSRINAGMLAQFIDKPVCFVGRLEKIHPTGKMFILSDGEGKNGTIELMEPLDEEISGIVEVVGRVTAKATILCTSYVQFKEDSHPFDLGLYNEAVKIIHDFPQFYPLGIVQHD
UniProt P31350, whole entry, looked up: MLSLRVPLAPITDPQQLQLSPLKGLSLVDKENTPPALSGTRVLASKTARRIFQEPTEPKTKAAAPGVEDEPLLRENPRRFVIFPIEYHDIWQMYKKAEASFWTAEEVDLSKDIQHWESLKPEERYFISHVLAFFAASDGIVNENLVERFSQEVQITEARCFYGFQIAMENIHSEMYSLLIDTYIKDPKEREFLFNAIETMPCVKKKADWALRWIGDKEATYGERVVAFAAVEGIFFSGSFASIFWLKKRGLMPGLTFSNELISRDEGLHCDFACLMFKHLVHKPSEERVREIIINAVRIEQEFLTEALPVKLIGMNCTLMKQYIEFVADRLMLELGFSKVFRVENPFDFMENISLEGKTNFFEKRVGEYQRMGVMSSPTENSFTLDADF
UniProt Q8N5L8: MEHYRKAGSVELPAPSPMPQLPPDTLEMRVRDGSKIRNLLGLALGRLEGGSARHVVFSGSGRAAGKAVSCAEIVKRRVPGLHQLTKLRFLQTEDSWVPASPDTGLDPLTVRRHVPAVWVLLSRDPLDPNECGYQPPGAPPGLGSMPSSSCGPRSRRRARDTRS
UniProt Q15349, whole entry, looked up: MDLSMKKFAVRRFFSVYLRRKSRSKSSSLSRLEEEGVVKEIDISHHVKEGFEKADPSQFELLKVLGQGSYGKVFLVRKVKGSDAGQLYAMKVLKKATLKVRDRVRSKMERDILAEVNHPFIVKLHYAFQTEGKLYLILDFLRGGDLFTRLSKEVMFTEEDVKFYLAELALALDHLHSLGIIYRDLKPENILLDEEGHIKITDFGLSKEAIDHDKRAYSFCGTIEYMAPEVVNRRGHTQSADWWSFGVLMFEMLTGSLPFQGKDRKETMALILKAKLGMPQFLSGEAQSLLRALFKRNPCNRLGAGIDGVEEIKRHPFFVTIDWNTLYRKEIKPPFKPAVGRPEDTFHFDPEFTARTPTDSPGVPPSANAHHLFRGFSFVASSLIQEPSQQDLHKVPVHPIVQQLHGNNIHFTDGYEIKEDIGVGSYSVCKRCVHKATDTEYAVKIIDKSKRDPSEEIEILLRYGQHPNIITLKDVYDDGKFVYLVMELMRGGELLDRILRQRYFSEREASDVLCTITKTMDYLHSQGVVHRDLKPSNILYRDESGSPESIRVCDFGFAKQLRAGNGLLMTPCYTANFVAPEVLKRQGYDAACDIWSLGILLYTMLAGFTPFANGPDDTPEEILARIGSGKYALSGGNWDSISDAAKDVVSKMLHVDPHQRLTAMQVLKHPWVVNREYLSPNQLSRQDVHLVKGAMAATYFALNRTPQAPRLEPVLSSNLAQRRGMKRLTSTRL

Tests used:
Experiment in all cases: log2 fold change, soluble protein after heating vs DMSO (PISA); higher = thermal stabilisation; K562 cells, 10 uM, 30 min; active = over 0.2 and 3.5 SD of the protein, either way, in both replicates (recomputed)
bafetinib = compound: Cc1ccc(NC(=O)c2ccc(CN3CC[C@H](N(C)C)C3)c(C(F)(F)F)c2)cc1Nc1nccc(-c2cncnc2)n1 [bafetinib]
Procedure, shortened: (§1)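 Soluble protein was defined as the supernatant after 21,000xg for 90 min. It came from K562 cells at 2×10^6 cells/mL given 10 μM compound for 30 min, heated in aliquots for 3 min across 48°C-58°C, pooled, and extracted in PBS with 0.5% NP-40 at 4°C, and was quantified by TMTpro 16plex LC-MS/MS with equalised channel sums. Thermal stability against control samples, from duplicates, is reported as log2 fold change.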

[1] = compound: Cc1cccc(CC(=O)N2CCc3c2ccc(-c2cn(C)c4ncnc(N)c24)c3F)n1
Procedure, shortened: as §1

nilotinib = compound: Cc1cn(-c2cc(NC(=O)c3ccc(C)c(Nc4nccc(-c5cccnc5)n4)c3)cc(C(F)(F)F)c2)cn1 [nilotinib]
Procedure, shortened: as §1

[2] = compound: Cc1nc(Nc2n[nH]c3c2CN(C(=O)N[C@H](CN(C)C)c2ccccc2)C3(C)C)c2sccc2n1
Procedure, shortened: as §1

dasatinib = compound: Cc1nc(Nc2ncc(C(=O)Nc3c(C)cccc3Cl)s2)cc(N2CCN(CCO)CC2)n1 [dasatinib]
Procedure, shortened: as §1

[3] = compound: Cc1ncc(-c2ccnc(Nc3ccc(S(C)(=O)=O)cc3)n2)n1C(C)C
Procedure, shortened: as §1

[4] = compound: Cn1cc(-c2ccc3c(c2)CCN3C(=O)Cc2cccc(C(F)(F)F)c2)c2c(N)ncnc21
Procedure, shortened: as §1

[5] = compound: Cn1cc(-c2ccc3nnc(C(F)(F)c4ccc5ncccc5c4)n3n2)cn1
Procedure, shortened: as §1

tipifarnib = compound: Cn1cncc1[C@@](N)(c1ccc(Cl)cc1)c1ccc2c(c1)c(-c1cccc(Cl)c1)cc(=O)n2C [tipifarnib]
Procedure, shortened: as §1

mubritinib = compound: FC(F)(F)c1ccc(/C=C/c2nc(COc3ccc(CCCCn4ccnn4)cc3)co2)cc1 [mubritinib]
Procedure, shortened: as §1

[6] = compound: NC(=O)Nc1cc(-c2cccc(F)c2)sc1C(=O)N[C@H]1CCCNC1
Procedure, shortened: as §1

[7] = compound: NC(=O)c1cnc(N[C@@H]2CCCC[C@@H]2N)nc1Nc1cccc(-n2nccn2)c1
Procedure, shortened: as §1

[8] = compound: NC1(c2ccc(-c3nc4ccn5c(=O)[nH]nc5c4cc3-c3ccccc3)cc2)CCC1
Procedure, shortened: as §1

[9] = compound: NCC(=O)Nc1ccc(-n2nc(C(F)(F)F)cc2-c2ccc3c(ccc4ccccc43)c2)cc1
Procedure, shortened: as §1

entinostat = compound: Nc1ccccc1NC(=O)c1ccc(CNC(=O)OCc2cccnc2)cc1 [entinostat]
Procedure, shortened: as §1

vorinostat = compound: O=C(CCCCCCC(=O)Nc1ccccc1)NO [vorinostat]
Procedure, shortened: as §1

citarinostat = compound: O=C(CCCCCCNC(=O)c1cnc(N(c2ccccc2)c2ccccc2Cl)nc1)NO [citarinostat]
Procedure, shortened: as §1

silmitasertib = compound: O=C(O)c1ccc2c(c1)nc(Nc1cccc(Cl)c1)c1ccncc12 [silmitasertib]
Procedure, shortened: as §1

[10] = compound: O=C1NC(=O)C(c2cnc3ccccn23)=C1c1cn2c3c(cc(F)cc13)CN(C(=O)N1CCCCC1)CC2
Procedure, shortened: as §1

[11] = compound: c1cc(OCCN2CCCCC2)cc(-c2n[nH]c3ccc(-c4nnc[nH]4)cc23)c1
Procedure, shortened: as §1

Target	log2 fold change (bafetinib)	log2 fold change [1]	log2 fold change (nilotinib)	log2 fold change [2]	log2 fold change (dasatinib)	log2 fold change [3]	log2 fold change [4]	log2 fold change [5]	log2 fold change (tipifarnib)	log2 fold change (mubritinib)	log2 fold change [6]	log2 fold change [7]	log2 fold change [8]	log2 fold change [9]	log2 fold change (entinostat)	log2 fold change (vorinostat)	log2 fold change (citarinostat)	log2 fold change (silmitasertib)	log2 fold change [10]	log2 fold change [11]
RPS28 (UniProt P62857)	inactive: 0.084	inactive: -0.023	inactive: 0.009	inactive: -0.011	inactive: 0.146	inactive: -0.037	inactive: 0.007	inactive: -0.03	inactive: 0.06	inactive: -0.004	inactive: -0.017	inactive: 0	inactive: 0.132	inactive: 0.051	inactive: -0.06	inactive: -0.022	inactive: -0.086	inactive: 0.003	inactive: 0.073	inactive: 0.168
RRAGB (UniProt Q5VZM2)	inactive: -0.079	inactive: -0.045	inactive: 0.031	inactive: -0.003	inactive: 0.041	inactive: 0.009	inactive: 0.06	inactive: 0.043	inactive: -0.025	inactive: 0.037	inactive: 0.112	inactive: -0.017	active: -0.317	inactive: 0.023	inactive: 0.012	inactive: 0.018	inactive: -0.006	inactive: 0.031	inactive: 0.008	inactive: 0.05
RRAS (UniProt P10301)	inactive: 0.008	inactive: -0.004	inactive: 0.019	inactive: -0.071	inactive: 0.047	inactive: -0.018	inactive: 0.042	inactive: 0.037	inactive: 0	inactive: 0.034	inactive: -0.024	inactive: 0.011	inactive: 0.008	inactive: -0.024	inactive: -0.088	inactive: -0.001	inactive: -0.002	inactive: 0.043	inactive: -0.002	inactive: -0.008
RPL10A (UniProt P62906)	inactive: 0.611	inactive: 0.036	inactive: 0.007	inactive: 0.321	inactive: 0.318	inactive: -0.022	inactive: -0.571	inactive: -0.219	inactive: 0.414	inactive: -0.342	inactive: 0.234	inactive: 0.165	inactive: 0.449	inactive: 0.331	inactive: -0.1	inactive: -0.028	inactive: -0.212	inactive: 0.206	inactive: 0.294	inactive: -0.322
RPS6KA3 (UniProt P51812)	inactive: -0.065	inactive: 0.046	inactive: 0.035	active: -0.798	inactive: -0.195	inactive: -0.019	inactive: -0.022	inactive: 0.031	inactive: -0.028	inactive: 0.02	inactive: -0.076	inactive: -0.177	inactive: -0.203	inactive: -0.029	inactive: 0.044	inactive: 0.048	inactive: 0.079	inactive: -0.038	inactive: -0.046	inactive: -0.241
RNF7 (UniProt Q9UBF6)	inactive: -0.003	inactive: 0	inactive: -0.052	inactive: -0.003	inactive: 0.101	inactive: -0.007	inactive: 0.052	inactive: 0.078	inactive: 0	inactive: 0.014	inactive: 0.067	inactive: 0.031	inactive: -0.007	inactive: 0.219	inactive: -0.211	inactive: -0.037	inactive: -0.064	inactive: 0.061	inactive: -0.012	inactive: 0.096
RPA3 (UniProt P35244)	inactive: 0.023	inactive: 0.086	inactive: -0.034	inactive: -0.047	inactive: 0.016	inactive: 0.022	inactive: 0.105	inactive: -0.002	inactive: 0.014	inactive: 0.024	inactive: 0.044	inactive: 0.086	inactive: -0.021	active: 0.371	inactive: 0.102	inactive: -0.005	inactive: 0.1	inactive: -0.007	inactive: -0.164	inactive: -0.071
RRM2 isoform 2 (UniProt P31350)	inactive: 0.018	inactive: 0.003	inactive: 0.025	inactive: 0.003	inactive: -0.006	inactive: -0.049	inactive: 0.027	inactive: -0.001	inactive: -0.036	inactive: 0.043	inactive: 0.027	inactive: 0.055	inactive: -0.046	inactive: 0.056	inactive: -0.01	inactive: 0.009	inactive: 0.019	inactive: -0.001	inactive: -0.006	inactive: -0.033
RPS25 (UniProt P62851)	inactive: 0.259	inactive: -0.007	inactive: 0.015	inactive: 0.174	inactive: 0.07	inactive: -0.032	inactive: -0.177	inactive: -0.077	inactive: 0.062	inactive: -0.068	inactive: -0.043	inactive: 0.071	inactive: 0.192	inactive: 0.053	inactive: -0.072	inactive: 0.032	inactive: -0.066	inactive: -0.061	inactive: 0.107	inactive: -0.052
RPL13 (UniProt P26373)	inactive: 0.48	inactive: 0.014	inactive: -0.01	inactive: 0.211	inactive: 0.318	inactive: -0.066	inactive: -0.68	inactive: -0.259	inactive: 0.42	inactive: -0.319	inactive: 0.205	inactive: 0.104	inactive: 0.443	inactive: 0.241	inactive: -0.082	inactive: 0	inactive: -0.219	inactive: 0.21	inactive: 0.248	inactive: -0.301
RPL6 (UniProt Q02878)	inactive: 0.609	inactive: 0.001	inactive: 0.006	inactive: 0.277	inactive: 0.324	inactive: -0.028	inactive: -0.488	inactive: -0.254	inactive: 0.412	inactive: -0.388	inactive: 0.248	inactive: 0.186	inactive: 0.45	inactive: 0.277	inactive: -0.105	inactive: -0.036	inactive: -0.239	inactive: 0.176	inactive: 0.291	inactive: -0.364
RPL36AL (UniProt Q969Q0)	inactive: 0.394	inactive: 0.015	inactive: 0.067	inactive: 0.121	inactive: 0.185	inactive: -0.047	inactive: -0.344	inactive: -0.163	inactive: 0.12	inactive: -0.24	inactive: 0.107	inactive: 0.223	inactive: 0.348	inactive: 0.195	inactive: -0.048	inactive: -0.037	inactive: -0.112	inactive: 0.123	inactive: 0.324	inactive: 0.035
RPP25L (UniProt Q8N5L8)	inactive: 0.143	inactive: -0.04	inactive: 0.044	inactive: -0.087	inactive: 0.09	inactive: -0.031	inactive: -0.058	inactive: 0.004	inactive: 0.044	inactive: -0.004	inactive: 0.003	inactive: -0.052	inactive: -0.012	inactive: -0.032	inactive: -0.001	inactive: -0.014	inactive: -0.08	inactive: 0.073	inactive: 0.183	inactive: -0.075
RPL21 (UniProt P46778)	inactive: 0.396	inactive: -0.001	inactive: 0.032	inactive: 0.269	inactive: 0.308	inactive: -0.025	inactive: -0.612	inactive: -0.175	inactive: 0.429	inactive: -0.346	inactive: 0.252	inactive: 0.134	inactive: 0.478	inactive: 0.328	inactive: -0.088	inactive: -0.01	inactive: -0.14	inactive: 0.195	inactive: 0.157	inactive: -0.268
RPS6KA2 isoform 2 (UniProt Q15349)	inactive: -0.112	inactive: 0.15	inactive: 0.008	active: -0.571	inactive: -0.228	inactive: -0.013	inactive: 0.001	inactive: 0.021	inactive: -0.069	inactive: 0.085	inactive: -0.129	inactive: -0.256	inactive: -0.269	inactive: -0.035	inactive: 0.067	inactive: 0.122	inactive: 0.106	inactive: -0.044	inactive: -0.056	inactive: -0.295
RPL39P5 (UniProt Q59GN2)	inactive: 0.309	inactive: -0.046	inactive: 0.006	inactive: 0.129	inactive: 0.139	inactive: -0.026	inactive: -0.488	inactive: -0.128	inactive: 0.056	inactive: -0.165	inactive: -0.078	inactive: 0.193	inactive: 0.288	inactive: 0.136	inactive: -0.151	inactive: -0.009	inactive: -0.102	inactive: 0.12	inactive: 0.087	inactive: -0.215

Whole records as entered above. Values in the order: log2 fold change (bafetinib) | log2 fold change [1] | log2 fold change (nilotinib) | log2 fold change [2] | log2 fold change (dasatinib) | log2 fold change [3] | log2 fold change [4] | log2 fold change [5] | log2 fold change (tipifarnib) | log2 fold change (mubritinib) | log2 fold change [6] | log2 fold change [7] | log2 fold change [8] | log2 fold change [9] | log2 fold change (entinostat) | log2 fold change (vorinostat) | log2 fold change (citarinostat) | log2 fold change (silmitasertib) | log2 fold change [10] | log2 fold change [11]
RRAGB (UniProt Q5VZM2) is listed with inactive: -0.079 | inactive: -0.045 | inactive: 0.031 | inactive: -0.003 | inactive: 0.041 | inactive: 0.009 | inactive: 0.06 | inactive: 0.043 | inactive: -0.025 | inactive: 0.037 | inactive: 0.112 | inactive: -0.017 | active: -0.317 | inactive: 0.023 | inactive: 0.012 | inactive: 0.018 | inactive: -0.006 | inactive: 0.031 | inactive: 0.008 | inactive: 0.05
RPL21 (UniProt P46778) is listed with inactive: 0.396 | inactive: -0.001 | inactive: 0.032 | inactive: 0.269 | inactive: 0.308 | inactive: -0.025 | inactive: -0.612 | inactive: -0.175 | inactive: 0.429 | inactive: -0.346 | inactive: 0.252 | inactive: 0.134 | inactive: 0.478 | inactive: 0.328 | inactive: -0.088 | inactive: -0.01 | inactive: -0.14 | inactive: 0.195 | inactive: 0.157 | inactive: -0.268
